## Library screening results

From ChEMBL document CHEMBL3988442, “University of Dundee, Small-Polar-MMV Screening Library” (2021).

Mtb heat-shock: 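Assay on Mycobacterium tuberculosis, filed only as a heat shock assay from Cornell; the read-out is not stated. The concentration is filed as 10 mM, unlikely as a test dose, so the dose is not known. The record gives no direction; compounds that gave an IC50 in retests scored well above the rest, so higher reads as stronger inhibition. About 69,000 compounds were tested under these conditions; 1.4% (about 930) showed 50% or more at least once.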
Mtb growth Cornell: 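Whole-cell assay for inhibitors of Mycobacterium tuberculosis growth, labelled Cornell in the record; the read-out is not stated. The concentration is filed as 10 mM, unlikely as a test dose, so the dose is not known. The record gives no direction; compounds strong in two other growth screens of this library score well above the rest, so higher reads as stronger inhibition. About 53,000 compounds were tested under these conditions; 1.7% (about 900) showed 50% or more at least once.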

Values are the deposited “Percent Effect”, in %. How 0% and 100% were set is not recorded. Most values in the screen are low, and negative values occur. This is an unselected part of the compounds tested. A dash means the value is not listed here; it may have been measured.

compound | Mtb heat-shock | Mtb growth Cornell
COCc1noc(C2(c3ccc(OC)cc3)CCOCC2)n1 | 5.567 | -
Cc1cccc(N2CCN(CCC(=O)NCc3cccnc3)CC2)c1 | -9.417 | 20.1
COCCCN(C)C(=O)c1nnn(-c2ccccc2Cl)c1C | -8.14 | -4.983
Cc1cccc(C(=O)N2CCCn3cnc(CN4CCCC4=O)c3C2)n1 | -9.879 | -
CS(=O)(=O)c1ccc(Cl)c(C(=O)NCCC2=CCCCC2)c1 | -24.81 | -40.49
Cc1cccn2c(=O)cc(CN3CCCC3Cn3cncn3)nc12 (stereo not given) | 8.96 | -
CCOc1cc(F)ccc1NC(=O)N(C)Cc1cnn(C)c1 | 0.7257 | -
Cc1ccc(OC2(C(=O)NC(C)Cc3ccncc3)CCNCC2)cc1 (stereo not given) | -21.95 | 7.235
Cc1occc1C(=O)NCCOc1ccc(C(F)(F)F)cn1 | -22.54 | -
Cn1cccc1C(=O)NCc1cn2c(n1)CN(c1ncccn1)CC2 | -0.9133 | 21.72
Cc1ccnc(N2CCCC(c3noc(C(C)C)n3)C2)n1 (stereo not given) | 12.21 | -
[H][C@]12CC[C@@]3(N=C(CC)NC3=O)[C@@]1([H])CN(CC1CC1)C2 | -0.6386 | -44.94
Cc1n[nH]c(C2CN(Cc3csc(C4CC4)n3)CCO2)n1 (stereo not given) | 19 | -
O=C(COCc1ccccc1)Nc1ccccn1 | 7.206 | 8.614
Cc1ccc(=O)n(CC2(O)CCN(Cc3ccsc3)CC2)n1 | -12.36 | -1.52
[H][C@@]12CS(=O)(=O)C[C@]1([H])N(Cc1nc3c(s1)CCCC3)CCN2C | -0.26 | -32.17
CCC(C(=O)N(Cc1ccccc1OC)C1CC1)n1cccn1 (stereo not given) | -20.22 | -
Cc1ccc(SCC2CNc3nc4ccccc4c(=O)n32)c(C)c1 (stereo not given) | -14.99 | 0.7049
COc1ccc(-c2cc(C3CCN(C(C)=O)CC3)ccn2)cc1 | -3.868 | 5.655
Cc1cc(C(F)(F)F)nn1CC(C)C(=O)Nc1cccnc1 (stereo not given) | 6.2 | -
CCOCc1nc2c(c(N3CCCn4nc(C)cc4C3)n1)CCNCC2 | -28.05 | -
CNC(=O)C1=NOC2(CCN(Cc3nccs3)C2)C1 (stereo not given) | -31.92 | 0.5568
Cc1ccc2[nH]c3c(c2c1)CN(C(=O)CN(C)CC1OCCO1)CC3 | 4.493 | -1.173
COC(=O)c1cccc(C(=O)N2CCN(c3cccc(C)c3C)CC2)n1 | 10.41 | 41.07
Cc1nc(O)c2c(n1)CCN(Cc1cc(C)sc1C)CC2 | -1.34 | -4.365
COCCCNC(=O)Nc1c(C)cccc1C(C)C | 13.42 | -27.3
O=C(c1cccs1)N1CCOCC2(C1)CN(c1ccccc1)C(=O)CO2 (stereo not given) | -6.048 | 40.28
CS(=O)(=O)CCNCc1ccc(OCc2ccncc2)cc1 | -12.77 | -14.39
O=C(O)C(F)(F)F.c1ccc(CN2Cc3[nH]nc(COCC4CC4)c3C2)nc1 | -16.63 | 12.09
Cc1ncc(CN2CCC(O)(c3ccccc3F)CC2)cn1 | -6.038 | -1.493
O=C1CC(c2ccc(F)cc2)c2snc(C(=O)O)c2N1 (stereo not given) | -2.738 | -
COCC(=O)N1CCC(c2cc3nc(C)cc(C(F)(F)F)n3n2)CC1 | -4.389 | -41.92
COCCn1c(=O)n(Cc2cccc(F)c2F)c2cc(C(=O)O)ccc21 | -10.81 | -17.41
CC1CCCCN1C(=O)Cn1cnc(C#N)n1 (stereo not given) | 10.82 | 35.88
CN1CCC(N(C)C(=O)Nc2ccc(Cl)cc2)CC1 | -7.194 | 10.76
CC(C)NC(=O)N1CCN(C(=O)C(C)C)CC2(CC(=O)N(C)C2)C1 (stereo not given) | 5.798 | 4.592
Cc1csc(C(C#N)C(=O)NCc2ccccc2)n1 (stereo not given) | 14.19 | 3.674
O=C(NCc1cnn(-c2ccc(F)cc2F)c1)C1CCCO1 (stereo not given) | 5.553 | -
COCCn1ccc(NC(=O)Nc2ccc(C)cc2)n1 | 10.21 | 14.82
CN1CCOC(CN(C(=O)CCCn2cccn2)c2nccs2)C1 (stereo not given) | -4.043 | -1.774
CNC(=O)c1ccc2c(c1)C1(CCN(CC3CC3)CC1)C(=O)N2.O=C(O)C(F)(F)F | -21.35 | -
COc1ccccc1C1CC(=O)Nc2c1c(=O)[nH]n2C1CCCC1 (stereo not given) | 4.69 | 42.49
CCCN(c1ccccc1C(=O)O)S(=O)(=O)c1cccc2cccnc12 | -2.662 | -
N#Cc1ccc(CN2CCN(C(=O)c3cc(C4CC4)[nH]n3)CC2)cc1 | -3.402 | 26.6
NC(=O)C1CCCN(c2ccc(CNC(=O)c3cc[nH]n3)cc2)C1 (stereo not given) | -38.81 | -31.5
N#Cc1cccc(S(=O)(=O)NC(=O)COC2CCCC2)c1 | 4.463 | 5.847
CCn1c(C)nc2cc(NC(=O)CC3CCN(S(C)(=O)=O)CC3)ccc21 | -2.54 | -17.23
O=C(C1CC1)N1CCC2(CC1)CNCc1ccccc12 | -25.61 | -32.56
O=C(NCC1(O)CCC1)c1c(O)cc(F)cc1F | -12.16 | -6.728
CC(C)N1CCC2(CC1)CN(C)C(=O)C[C@H]2C(F)(F)F | 8.57 | -1.89
NC(=O)c1c[nH]nc1NC(=O)c1ccc(Cl)cc1 | -2.045 | 16.52
O=C(O)C(F)(F)F.O=C(O)C(F)(F)F.[H][C@@]12CCN(Cc3ccc(C)o3)C[C@]1([H])OCCN(Cc1cccnc1)C2=O | -7.291 | 12.6
CN1CCC(c2nc3ccc(-c4ccccc4)cn3n2)CC1.O=C(O)C(F)(F)F | -24.93 | -10.74
CC(CNC(=O)CCn1cncn1)N1CCc2ccccc21 (stereo not given) | -14.45 | -37.09
CC1=C(C(=O)NCCc2n[nH]c3c2CCCC3)C(C)NC(=O)N1 (stereo not given) | -6.016 | -20.87
COc1cccc(-n2cc(CN(C)C(=O)c3cnc(O)cn3)cn2)c1 | 24.82 | 34.8
CC(C)CNC(=O)Cn1ccc2ccccc21 | -24.03 | -6.407
Cc1nc(CNC(=O)NC2CCN(c3ncccc3Cl)C2)no1 (stereo not given) | -28.21 | 22

Some entries from above, unchanged:

For Cc1ccc(SCC2CNc3nc4ccccc4c(=O)n32)c(C)c1 (stereo not given) the result was Mtb heat-shock: -14.99%; Mtb growth Cornell: 0.7049%.
For COc1ccccc1C1CC(=O)Nc2c1c(=O)[nH]n2C1CCCC1 (stereo not given) the result was Mtb heat-shock: 4.69%; Mtb growth Cornell: 42.49%.
For O=C(O)C(F)(F)F.O=C(O)C(F)(F)F.[H][C@@]12CCN(Cc3ccc(C)o3)C[C@]1([H])OCCN(Cc1cccnc1)C2=O the result was Mtb heat-shock: -7.291%; Mtb growth Cornell: 12.6%.
For COCCCN(C)C(=O)c1nnn(-c2ccccc2Cl)c1C the result was Mtb heat-shock: -8.14%; Mtb growth Cornell: -4.983%.
For N#Cc1ccc(CN2CCN(C(=O)c3cc(C4CC4)[nH]n3)CC2)cc1 the result was Mtb heat-shock: -3.402%; Mtb growth Cornell: 26.6%.
For CC(CNC(=O)CCn1cncn1)N1CCc2ccccc21 (stereo not given) the result was Mtb heat-shock: -14.45%; Mtb growth Cornell: -37.09%.